# Experimental data: the supplement of paper PMC8728848
# This is one part of the list.
# B1: GS7807I-bvu-563-22-563 (Bacteroides vulgatus) (protein)
# chain: IFSSCTDDFEKLNTSNIQVDPADLPFAAQCTEPMTYCYPPQQNMFQFWTNLTIDLYGGYFMTPNGNFTNGDMGENRGHSGGMYENYYLHIFNNTRRIIAQCDASGERGLSGVMRIVQAYGTLMTTDAYGPIPYSSILSGENEVYFEFDSQKDLYKAMLEDLSTAITDISAMGADEIAKLKSFDCWCNGDKDLWVKIANTMKLRMALRLSKRETEAGNAGMNLKAIATEAAQNTLATVNKDILIDKSLENEMWLMFNWGDCGFNANLVTIMSGTKDPRQPLYMTLNTGDIKNEAGTTTVAANSQYLGIRFASGLPAKPNSWGNFSGWIQGNNGSSYSMPLPIMKAAEAYFLLAEAKLRWDIGSESVKNLYENGIRVSMTNELAYRGAYAGIKEYPEGAVDAYINGTSTQIDYTDPIKAELSTPAVNKLSVKWDESASNEEKLERIITQKWLALFPLSTEGWAEQRRTGYPRFFPAFVNESNGAVNTEEGVRRVIYSSQAYDANAKGVEGGIKLLDEENSSKFGISGDKGGTHLWWDNADKGNF
# What was measured:
# Assay in all cases: glycan array binding signal (z-score within array); higher = stronger binding
# Details in all cases: glycan notation: IUPAC condensed, linker removed
# [1] = molecular target: Neu5Ac(a2-3)Gal(b1-4)GlcNAc(b1-6)GalNAc
# In short: (§1)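 Columns mapping to the same glycan were averaged after glycan names were converted to IUPAC-condensed notation. The data come from 3228 arrays in the Consortium for Functional Glycomics database, limited to those with an available protein sequence. Binding is reported as a within-array Z-score averaged across arrays of one protein sequence and across linkers.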
# [2] = molecular target: Neu5Ac(a2-3)Gal(b1-4)GlcNAc(b1-6)[Gal(b1-3)]GalNAc
# In short: as §1
# [3] = molecular target: Neu5Ac(a2-3)Gal(b1-4)GlcNAc(b1-6)[Neu5Ac(a2-3)Gal(b1-3)]GalNAc
# In short: as §1
# [4] = molecular target: Neu5Ac(a2-3)Gal(b1-4)GlcNAc6S
# In short: as §1
# [5] = molecular target: Neu5Ac(a2-3)Gal(b1-4)[Fuc(a1-3)]GlcNAc
# In short: as §1
# [6] = molecular target: Neu5Ac(a2-3)Gal(b1-4)[Fuc(a1-3)]GlcNAc(b1-2)Man
# In short: as §1
# [7] = molecular target: Neu5Ac(a2-3)Gal(b1-4)[Fuc(a1-3)]GlcNAc(b1-3)Gal
# In short: as §1
# [8] = molecular target: Neu5Ac(a2-3)Gal(b1-4)[Fuc(a1-3)]GlcNAc(b1-3)Gal(b1-4)GlcNAc
# In short: as §1
# [9] = molecular target: Neu5Ac(a2-3)Gal(b1-4)[Fuc(a1-3)]GlcNAc(b1-3)Gal(b1-4)[Fuc(a1-3)]GlcNAc(b1-3)Gal(b1-4)[Fuc(a1-3)]GlcNAc
# In short: as §1
# [10] = molecular target: Neu5Ac(a2-3)Gal(b1-4)[Fuc(a1-3)]GlcNAc(b1-3)GalNAc
# In short: as §1
# [11] = molecular target: Neu5Ac(a2-3)Gal(b1-4)[Fuc(a1-3)]GlcNAc(b1-6)[Gal(b1-3)]GalNAc
# In short: as §1
# [12] = molecular target: Neu5Ac(a2-3)Gal(b1-4)[Fuc(a1-3)]GlcNAc(b1-6)[Neu5Ac(a2-3)Gal(b1-3)]GalNAc
# In short: as §1
# [13] = molecular target: Neu5Ac(a2-3)Gal(b1-4)[Fuc(a1-3)]GlcNAc6S
# In short: as §1
# [14] = molecular target: Neu5Ac(a2-3)Gal6S(b1-4)GlcNAc
# In short: as §1
# [15] = molecular target: Neu5Ac(a2-3)Gal6S(b1-4)[Fuc(a1-3)]GlcNAc
# In short: as §1
# [16] = molecular target: Neu5Ac(a2-3)GalNAc
# In short: as §1
# [17] = molecular target: Neu5Ac(a2-3)GalNAc(b1-4)GlcNAc
# In short: as §1
# [18] = molecular target: Neu5Ac(a2-3)[GalNAc(b1-4)]Gal(b1-4)Glc
# In short: as §1
# [19] = molecular target: Neu5Ac(a2-3)[GalNAc(b1-4)]Gal(b1-4)GlcNAc
# In short: as §1
# [20] = molecular target: Neu5Ac(a2-3)[GalNAc(b1-4)]Gal(b1-4)GlcNAc(b1-3)GalNAc
# In short: as §1
# [21] = molecular target: Neu5Ac(a2-3)[Neu5Ac(a2-6)]GalNAc
# In short: as §1
# [22] = molecular target: Neu5Ac(a2-6)Gal
# In short: as §1
# [23] = molecular target: Neu5Ac(a2-6)Gal(b1-3)GlcNAc(b1-3)[Gal(b1-4)GlcNAc(b1-6)]Gal(b1-4)Glc
# In short: as §1
# [24] = molecular target: Neu5Ac(a2-6)Gal(b1-4)Glc
# In short: as §1
# [25] = molecular target: Neu5Ac(a2-6)Gal(b1-4)GlcNAc
# In short: as §1
# [26] = molecular target: Neu5Ac(a2-6)Gal(b1-4)GlcNAc(b1-2)Man
# In short: as §1
# [27] = molecular target: Neu5Ac(a2-6)Gal(b1-4)GlcNAc(b1-2)Man(a1-3)Man(b1-4)GlcNAc(b1-4)GlcNAc
# In short: as §1
# [28] = molecular target: Neu5Ac(a2-6)Gal(b1-4)GlcNAc(b1-2)Man(a1-3)[Gal(b1-4)GlcNAc(b1-2)Man(a1-6)]Man(b1-4)GlcNAc(b1-4)GlcNAc
# In short: as §1
# [29] = molecular target: Neu5Ac(a2-6)Gal(b1-4)GlcNAc(b1-2)Man(a1-3)[GlcNAc(b1-2)Man(a1-6)]Man(b1-4)GlcNAc(b1-4)GlcNAc
# In short: as §1
# [30] = molecular target: Neu5Ac(a2-6)Gal(b1-4)GlcNAc(b1-2)Man(a1-3)[GlcNAc(b1-4)][Neu5Ac(a2-6)Gal(b1-4)GlcNAc(b1-2)Man(a1-6)]Man(b1-4)GlcNAc(b1-4)GlcNAc
# In short: as §1
binder,measurement,setting,value
B1,glycan array binding signal (z-score),[1],-1.69
same,glycan array binding signal (z-score),[2],-1.16
same,glycan array binding signal (z-score),[3],-0.221
same,glycan array binding signal (z-score),[4],-0.432
same,glycan array binding signal (z-score),[5],-0.663
same,glycan array binding signal (z-score),[6],0.586
same,glycan array binding signal (z-score),[7],-0.291
same,glycan array binding signal (z-score),[8],-0.977
same,glycan array binding signal (z-score),[9],-1.54
same,glycan array binding signal (z-score),[10],5.03
same,glycan array binding signal (z-score),[11],0.973
same,glycan array binding signal (z-score),[12],-0.487
same,glycan array binding signal (z-score),[13],-1.46
same,glycan array binding signal (z-score),[14],-1.61
same,glycan array binding signal (z-score),[15],-1.45
same,glycan array binding signal (z-score),[16],-0.657
same,glycan array binding signal (z-score),[17],-1.11
same,glycan array binding signal (z-score),[18],-1.14
same,glycan array binding signal (z-score),[19],-1.37
same,glycan array binding signal (z-score),[20],-0.207
same,glycan array binding signal (z-score),[21],1.18
same,glycan array binding signal (z-score),[22],-0.538
same,glycan array binding signal (z-score),[23],-0.463
same,glycan array binding signal (z-score),[24],-0.793
same,glycan array binding signal (z-score),[25],1.17
same,glycan array binding signal (z-score),[26],0.02
same,glycan array binding signal (z-score),[27],-0.731
same,glycan array binding signal (z-score),[28],-1.77
same,glycan array binding signal (z-score),[29],-1.35
same,glycan array binding signal (z-score),[30],1.15

# Looked up one by one from the list above, 2 records:
binder,measurement,setting,value
B1,glycan array binding signal (z-score),[15],-1.45
same,glycan array binding signal (z-score),[7],-0.291
